The record followed here is article PMC9950432.

The chains behind the UniProt entries cited, without tags or fusion partners. Residues count along the entry.
UniProt Q9EP73, residues 19-290: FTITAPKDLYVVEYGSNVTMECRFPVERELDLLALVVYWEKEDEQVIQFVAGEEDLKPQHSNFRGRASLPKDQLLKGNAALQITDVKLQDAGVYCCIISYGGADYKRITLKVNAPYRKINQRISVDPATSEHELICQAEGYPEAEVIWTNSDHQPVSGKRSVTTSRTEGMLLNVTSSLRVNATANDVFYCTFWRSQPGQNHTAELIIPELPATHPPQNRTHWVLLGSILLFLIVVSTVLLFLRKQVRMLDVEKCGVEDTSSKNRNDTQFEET
UniProt Q9NZQ7, residues 19-290: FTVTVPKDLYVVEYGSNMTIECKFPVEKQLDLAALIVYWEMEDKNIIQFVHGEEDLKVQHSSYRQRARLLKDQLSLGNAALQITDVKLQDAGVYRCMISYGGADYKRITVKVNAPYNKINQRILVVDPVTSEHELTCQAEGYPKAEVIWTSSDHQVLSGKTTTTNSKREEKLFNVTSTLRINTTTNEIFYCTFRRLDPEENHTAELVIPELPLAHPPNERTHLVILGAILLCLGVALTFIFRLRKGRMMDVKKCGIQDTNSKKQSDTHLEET

Results are given in words; binding and its absence hold for the method and conditions named. In cells and extracts the contact can be indirect. Some binding calls cover weakened binding; strength is not graded here.

In assay [1] the target is programmed death-ligand 1 (PD-L1), endogenous, mouse KPC cells (mouse (endogenous in KPC)) (UniProt Q9EP73). Put plainly: co-IP; endogenous proteins; cells lysed in IP/Western lysing solution (Beyotime P0013), immunoprecipitation according to the manufacturer's instructions, then western blotting with the indicated antibodies. A general note: In western blotting, separated proteins are transferred to a membrane and probed.

The target in assay [2] is programmed death-ligand 1 (PD-L1), endogenous, human pancreatic cancer cells (human (endogenous in BxPC-3 and SW1990)) (UniProt Q9NZQ7). The description is as above.

B1: ubiquitin-specific protease 8 (USP8), endogenous, mouse KPC cells (enzyme, UniProt Q80U87 1-1080)
chain: MPAVASVPKELYLSSSLKDLNKKTEVKPEKTSTKNYIHSAQKIFKTAEECRLDRDEERAYVLYMKYVAVYNLIKKRPDFKQQQDYYLSILGPANIKKAIEEAERLSESLKLRYEEAEVRKQLEEKDRREEEQLQQQKRQEMGREDSGAAAKRSVENLLDSKTKTQRINGEKSEGAAAAERGAITAKELYTMMMDKNTSLIIMDARKIQDYQHSCILDSLSVPEEAISPGVTASWIEANLSDDSKDTWKKRGSVDYVVLLDWFSSAKDLLLGTTLRSLKDALFKWESKTVLRHEPLVLEGGYENWLLCYPQFTTNAKVTPPPRSRAEEVSVSLDFTYPSLEEPVPSKLPTQMPPPPIETNEKALLVTDQDEKLRLSTQPALAGPGAAPRAEASPIIQPAPATKSVPQVDRTKKPSVKLPEDHRIKSENTDQSGRVLSDRSTKPVFPSPTTMLTDEEKARIHQETALLMEKNKQEKELWDKQQKEQKEKLRREEQERKAGKTQDADERDSTENQHKAKDGQEKKDSKQTKTEDRELSADGAQEATGTQRQSKSEHEASDAKVPVEGKRCPTSEAQKRPADVSPASVSGELNAGKAQREPLTRARSEEMGRIVPGLPLGWAKFLDPITGTFRYYHSPTNTVHMYPPEMAPSSAPPSTPPTHKVKPQVPAERDREPSKLKRSYSSPDITQALQEEEKRRPAVTPMVNRENKPPCYPKAEISRLSASQIRNLNPVFGGSGPALTGLRNLGNTCYMNSILQCLCNAPHLADYFNRNCYQDDINRSNLLGHKGEVAEEFGIIMKALWTGQYRYISPKDFKVTIGKINDQFAGSSQQDSQELLLFLMDGLHEDLNKADNRKRHKEENNEHLDDLQAAEHAWQKHKQLNESIIVALFQGQFKSTVQCLTCRRRSRTFEAFMYLSLPLASTSKCTLQDCLRLFSKEEKLTDNNRFYCSHCRARRDSLKKIEIWKLPPVLLVHLKRFSYDGRWKQKLQTSVDFPLENLDLSQYVIGPKNSLKKYNLFSVSNHYGGLDGGHYTAYCKNAARQRWFKFDDHEVSDISVSSVRSSAAYILFYTSLGPRITDVAT
Regarding B1, the binding entry in assay [1] is recorded as “binds”.

B2: ubiquitin-specific protease 8 (USP8), endogenous, human pancreatic cancer cells (enzyme, UniProt P40818 1-1118)
chain: MPAVASVPKELYLSSSLKDLNKKTEVKPEKISTKSYVHSALKIFKTAEECRLDRDEERAYVLYMKYVTVYNLIKKRPDFKQQQDYFHSILGPGNIKKAVEEAERLSESLKLRYEEAEVRKKLEEKDRQEEAQRLQQKRQETGREDGGTLAKGSLENVLDSKDKTQKSNGEKNEKCETKEKGAITAKELYTMMTDKNISLIIMDARRMQDYQDSCILHSLSVPEEAISPGVTASWIEAHLPDDSKDTWKKRGNVEYVVLLDWFSSAKDLQIGTTLRSLKDALFKWESKTVLRNEPLVLEGGYENWLLCYPQYTTNAKVTPPPRRQNEEVSISLDFTYPSLEESIPSKPAAQTPPASIEVDENIELISGQNERMGPLNISTPVEPVAASKSDVSPIIQPVPSIKNVPQIDRTKKPAVKLPEEHRIKSESTNHEQQSPQSGKVIPDRSTKPVVFSPTLMLTDEEKARIHAETALLMEKNKQEKELRERQQEEQKEKLRKEEQEQKAKKKQEAEENEITEKQQKAKEEMEKKESEQAKKEDKETSAKRGKEITGVKRQSKSEHETSDAKKSVEDRGKRCPTPEIQKKSTGDVPHTSVTGDSGSGKPFKIKGQPESGILRTGTFREDTDDTERNKAQREPLTRARSEEMGRIVPGLPSGWAKFLDPITGTFRYYHSPTNTVHMYPPEMAPSSAPPSTPPTHKAKPQIPAERDREPSKLKRSYSSPDITQAIQEEEKRKPTVTPTVNRENKPTCYPKAEISRLSASQIRNLNPVFGGSGPALTGLRNLGNTCYMNSILQCLCNAPHLADYFNRNCYQDDINRSNLLGHKGEVAEEFGIIMKALWTGQYRYISPKDFKITIGKINDQFAGYSQQDSQELLLFLMDGLHEDLNKADNRKRYKEENNDHLDDFKAAEHAWQKHKQLNESIIVALFQGQFKSTVQCLTCHKKSRTFEAFMYLSLPLASTSKCTLQDCLRLFSKEEKLTDNNRFYCSHCRARRDSLKKIEIWKLPPVLLVHLKRFSYDGRWKQKLQTSVDFPLENLDLSQYVIGPKNNLKKYNLFSVSNHYGGLDGGHYTAYCKNAARQRWFKFDDHEVSDISVSSVKSSAAYILFYTSLGPRVTDVAT
Regarding B2, the binding result in assay [2] was “binds”.
